Experimental findings from publication PMC7423924 (Nature Communications, 2020) are described below.

This data set can be described thus: general procedure: Fmoc solid-phase peptide synthesis; 2-chlorotrityl chloride polystyrene resin (loading: 1.6 mmol g-1); COMU, Oxyma Pure. The following applies: whole synthesis, scale of the general procedure 30 µmol; for final HPLC purity: 280 nm.

Strings that start with PEPTIDE1 are HELM notation: dots part the residues, brackets hold end groups and non-standard residues.

Take “PEPTIDE1{K.K.K.W.F.[W(BODIPY)].G}$PEPTIDE1,PEPTIDE1,1:R1-7:R2$$$V2.0”: the “final HPLC purity” value is 98% and the isolated yield was 38%.
For the substance “PEPTIDE1{K.W.W.K.K.[W(BODIPY)].G}$PEPTIDE1,PEPTIDE1,1:R1-7:R2$$$V2.0”, the “final HPLC purity” value stood at 99% and the isolated yield turned out to be 43%.
On to “PEPTIDE1{K.W.K.W.K.[W(BODIPY)].G}$PEPTIDE1,PEPTIDE1,1:R1-7:R2$$$V2.0”, for which the “final HPLC purity” value is recorded as 99% and the isolated yield was determined as 77%.
Turning to “PEPTIDE1{K.K.K.L.I.[W(BODIPY)].G}$PEPTIDE1,PEPTIDE1,1:R1-7:R2$$$V2.0”, the “final HPLC purity” value was found to be 97% and the isolated yield was found to be 91%.
For c(RKKWFW(BODIPY)G), in that order: 99% and 26%.
The matching figures for “PEPTIDE1{K.K.K.W.W.[W(BODIPY)].G}$PEPTIDE1,PEPTIDE1,1:R1-7:R2$$$V2.0”: 99% and 35%.
The matching figures for “PEPTIDE1{K.K.K.K.W.[W(BODIPY)].G}$PEPTIDE1,PEPTIDE1,1:R1-7:R2$$$V2.0”: 98% and 43%.
As to “PEPTIDE1{W.W.K.K.K.[W(BODIPY)].G}$PEPTIDE1,PEPTIDE1,1:R1-7:R2$$$V2.0”, the “final HPLC purity” value worked out at 98% and the isolated yield stood at 82%.
As to “PEPTIDE1{E.E.E.W.W.[W(BODIPY)].G}$PEPTIDE1,PEPTIDE1,1:R1-7:R2$$$V2.0”, the “final HPLC purity” value is on record as 99% and the isolated yield amounted to 73%.
The matching figures for “PEPTIDE1{K.K.K.K.K.[W(BODIPY)].G}$PEPTIDE1,PEPTIDE1,1:R1-7:R2$$$V2.0”: 97% and 91%.
As to “PEPTIDE1{K.K.K.F.F.[W(BODIPY)].G}$PEPTIDE1,PEPTIDE1,1:R1-7:R2$$$V2.0”, the “final HPLC purity” value was determined as 98% and the isolated yield is reported as 73%.
The matching figures for “PEPTIDE1{K.W.W.W.W.[W(BODIPY)].G}$PEPTIDE1,PEPTIDE1,1:R1-7:R2$$$V2.0”: 99% and 92%.
For “PEPTIDE1{K.K.K.V.I.[W(BODIPY)].G}$PEPTIDE1,PEPTIDE1,1:R1-7:R2$$$V2.0”, the “final HPLC purity” value is recorded as 97% and the isolated yield was 75%.
The matching figures for “PEPTIDE1{K.K.W.W.K.[W(BODIPY)].G}$PEPTIDE1,PEPTIDE1,1:R1-7:R2$$$V2.0”: 99% and 64%.
Consider “PEPTIDE1{K.K.W.W.W.[W(BODIPY)].G}$PEPTIDE1,PEPTIDE1,1:R1-7:R2$$$V2.0”, for which the “final HPLC purity” value worked out at 98% and the isolated yield stood at 93%.
